Laboratory results: PubChem BioAssay AID1259254 (NCATS, 2017)
The whole screen tested about 59,000 reagents; shown is a part drawn at random. Over the whole deposit, about 1,550 (2.6%) are marked active. 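G2 share is only a proxy for re-replication; each gene was hit by three separate siRNAs, and active genes were retested.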 Raw values are not corrected between plates. The numbers tell different reagents against one gene apart. The record does not give: the amount of reagent.

- Screen: 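Gene knock-downs that lead to re-replication, shown by excess G2 DNA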 (primary screen)
- Cell system: human HCT116 colorectal cancer cells
- Knock-down reagent: single siRNA against human genes
- Time to read-out: 3 days
- Detection: 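Nuclei stained with Hoechst and imaged; cell-cycle phase assigned by DNA content; G2 share scaled per plate, non-targeting siRNA 0%, GMNN siRNA 100%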
- Reading the numbers: G2 robust z-score and G2 cells, % of GMNN control: higher = more G2 cells, more excess DNA replication; raw share of cells in G2: higher = larger share of cells with G2 DNA content
- Hit rule: 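An siRNA counts as active if its G2 robust z-score lies at least 5 MADs above the screen median; here such calls match roughly 38% of GMNN control or more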

gene | reagent no. | G2 robust z-score | G2 cells, % of GMNN control | raw share of cells in G2 (%) | Outcome
MAEA | 1 | 0.684 | 7.78 | 8.85 | inactive
MAEA | 2 | -1.17 | -5.27 | 1.74 | inactive
MAEA | 3 | 0.629 | 7.4 | 6.1 | inactive
ANKRD65 | 1 | 1.41 | 12.9 | 8.6 | inactive
ANKRD65 | 2 | -0.225 | 1.38 | 3.94 | inactive
ANKRD65 | 3 | 3.94 | 30.7 | 13.5 | inactive
PRICKLE1 | 1 | -0.853 | -3.04 | 4.51 | inactive
PRICKLE1 | 2 | -1.28 | -6.04 | 2.49 | inactive
PRICKLE1 | 3 | -0.747 | -2.29 | 3.74 | inactive
CCDC9B | 1 | 0.316 | 5.19 | 5.55 | inactive
CCDC9B | 2 | -0.498 | -0.538 | 3.17 | inactive
CCDC9B | 3 | 2.05 | 17.4 | 12.1 | inactive
EFCAB6 | 1 | -0.655 | -1.64 | 4.97 | inactive
EFCAB6 | 2 | 0.652 | 7.55 | 7.02 | inactive
EFCAB6 | 3 | 0.681 | 7.76 | 7.04 | inactive
BMP8A | 1 | -0.589 | -1.18 | 3.58 | inactive
BMP8A | 2 | -0.664 | -1.7 | 2.51 | inactive
BMP8A | 3 | -0.843 | -2.96 | 3 | inactive
ACTL10 | 1 | -0.782 | -2.53 | 2.11 | inactive
ACTL10 | 2 | -0.824 | -2.83 | 1.87 | inactive
ACTL10 | 3 | -0.628 | -1.45 | 3.08 | inactive
RPL4 | 1 | 7.95 | 58.9 | 23.7 | active
RPL4 | 2 | 4.66 | 35.8 | 18.3 | inactive
RPL4 | 3 | 10.2 | 75 | 30.8 | active
CREG1 | 1 | -0.211 | 1.48 | 5.79 | inactive
CREG1 | 2 | 1.12 | 10.8 | 8.19 | inactive
CREG1 | 3 | -1.05 | -4.42 | 1.79 | inactive
CEMP1 | 1 | 0.818 | 8.72 | 7.58 | inactive
CEMP1 | 2 | -0.792 | -2.61 | 2.44 | inactive
CEMP1 | 3 | 0.963 | 9.74 | 6.97 | inactive
GPR158 | 1 | -0.37 | 0.364 | 5.97 | inactive
GPR158 | 2 | 0.678 | 7.74 | 7.22 | inactive
GPR158 | 3 | 2 | 17.1 | 8.5 | inactive
TDRD1 | 1 | 4.3 | 33.2 | 18.2 | inactive
TDRD1 | 2 | -0.696 | -1.93 | 5.59 | inactive
TDRD1 | 3 | -0.621 | -1.4 | 3.94 | inactive
PIK3CD-AS1 | 1 | -0.474 | -0.371 | 3.5 | inactive
PIK3CD-AS1 | 2 | 0.21 | 4.44 | 4.87 | inactive
PIK3CD-AS1 | 3 | -0.011 | 2.89 | 3.99 | inactive
LRP5L | 1 | -0.478 | -0.395 | 3.92 | inactive
LRP5L | 2 | -0.323 | 0.694 | 3.22 | inactive
LRP5L | 3 | -0.299 | 0.865 | 3.2 | inactive
XPO1 | 1 | -0.463 | -0.29 | 4.38 | inactive
XPO1 | 2 | 1.04 | 10.3 | 9.95 | inactive
XPO1 | 3 | -0.236 | 1.3 | 4.75 | inactive
JMJD4 | 1 | 1.58 | 14.1 | 6.41 | inactive
JMJD4 | 2 | -0.771 | -2.46 | 3.51 | inactive
JMJD4 | 3 | -0.788 | -2.58 | 3.45 | inactive
MARK2P10 | 1 | 2.74 | 22.2 | 11.9 | inactive
MARK2P10 | 2 | -0.867 | -3.13 | 2.27 | inactive
MARK2P10 | 3 | -0.252 | 1.2 | 5.29 | inactive
SERTM1 | 1 | 0.927 | 9.49 | 7.26 | inactive
SERTM1 | 2 | 0.592 | 7.13 | 6.35 | inactive
SERTM1 | 3 | -0.885 | -3.26 | 3.44 | inactive
ZNF334 | 1 | 4.82 | 36.9 | 15.8 | inactive
ZNF334 | 2 | 0.932 | 9.53 | 10.2 | inactive
ZNF334 | 3 | 9.25 | 68 | 25 | active
LSS | 1 | 2.53 | 20.8 | 13.7 | inactive
LSS | 2 | -0.549 | -0.893 | 2.9 | inactive
LSS | 3 | -0.3 | 0.858 | 5.69 | inactive
FCGR3A | 1 | -0.696 | -1.93 | 4.54 | inactive
FCGR3A | 2 | -1.17 | -5.24 | 1.79 | inactive
FCGR3A | 3 | 1.64 | 14.5 | 10.8 | inactive
RCSD1 | 1 | -0.788 | -2.58 | 2.99 | inactive
RCSD1 | 2 | 1.98 | 16.9 | 8.31 | inactive
RCSD1 | 3 | 6.53 | 48.9 | 18.4 | active
CHD2 | 1 | -0.166 | 1.8 | 4.72 | inactive
CHD2 | 2 | -0.319 | 0.722 | 5.26 | inactive
CHD2 | 3 | -1.18 | -5.35 | 3.05 | inactive
CTXN1 | 1 | 0.352 | 5.44 | 5.68 | inactive
CTXN1 | 2 | -0.293 | 0.904 | 5.17 | inactive
CTXN1 | 3 | -0.68 | -1.82 | 3.15 | inactive
ZSWIM9 | 1 | -0.383 | 0.274 | 4.08 | inactive
ZSWIM9 | 2 | -0.69 | -1.89 | 2.43 | inactive
ZSWIM9 | 3 | -0.669 | -1.74 | 3.49 | inactive
MX2 | 1 | -0.337 | 0.593 | 5.71 | inactive
MX2 | 2 | -0.637 | -1.51 | 2.7 | inactive
MX2 | 3 | -0.494 | -0.511 | 5.16 | inactive
FRZB | 1 | 0.561 | 6.91 | 8.54 | inactive
FRZB | 2 | 1.61 | 14.3 | 9.33 | inactive
FRZB | 3 | -0.742 | -2.25 | 2.64 | inactive
EFR3A | 1 | 0.783 | 8.48 | 8.31 | inactive
EFR3A | 2 | 1.53 | 13.7 | 9.8 | inactive
EFR3A | 3 | 0.964 | 9.75 | 6.82 | inactive
OR2AK2 | 1 | 0.505 | 6.52 | 6.18 | inactive
OR2AK2 | 2 | -0.771 | -2.46 | 2.54 | inactive
OR2AK2 | 3 | -0.847 | -2.99 | 3.55 | inactive
